# Data published in PubChem BioAssay AID2205 (University of Pittsburgh Molecular Library Screening Center, 2009).
# Some of the results follow.
# Test: tubulin staining increase by stabilizing compounds – imaging, high-content imaging, primary screen (AID 2205);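 on toxicity: 0% = mean cell density of plate MIN control wells and 100% = no cells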
# Conditions: HeLa tubulin immunostaining HCS, 24 h, at 10 µM; % Hoechst-high responders: measured here: nuclear condensation Hoechst responders, stronger effect = higher value, share of cells brighter than vehicle mean+2SD; toxicity: measured here: cytotoxicity by cell density
Compound,% Hoechst-high responders [%],toxicity [%]
COc1ccc(OP(C)(=O)Nc2ccc(Br)cc2)cc1 (stereo not given),2.23,2.99
COc1ccc(C2=NCC(CBr)S2)cc1 (stereo not given),4.26,2.86
CCN(CC)CC(O)COC(=O)C(O)(c1ccccc1)C1CCCCC1 (stereo not given),2.03,5.32
CCc1nc2c(n1)c1c(non1O)c1c2no[n+]1[O-],4.13,2.09
O=[N+]([O-])c1cc([N+](=O)[O-])c(CCNc2ccccc2)c([N+](=O)[O-])c1,1.22,10.1
CCc1ccc(OP(C)(=O)Nc2cccnc2)cc1 (stereo not given),3.4,6.53
CP(=O)(Oc1ccccc1)N1CCOC1=O (stereo not given),0.982,2.07
Cc1ccc(NP(=O)(Oc2ccccc2)Oc2ccccc2)nc1,2.75,12.1
COc1ccccc1OP(C)(=O)Nc1c(C)n(C)n(-c2ccccc2)c1=O (stereo not given),1.41,0.441
O=[N+]([O-])c1cccc2n[nH]nc12,1.8,3.4
CC(=O)N1C2C3N(C(C)=O)C1C1N(C(C)=O)C(C(N1C(C)=O)N3C(C)=O)N2C(C)=O,1.64,4.08
CP(=O)(Nc1ccc(Cl)cc1)Oc1ccc(F)cc1 (stereo not given),1.11,6.63
CCN(/C(=N/P(=O)(N1CCOCC1)N1CCOCC1)N1CCOCC1)c1ccc(OC)cc1,3.06,0.393
CC(C)(C)c1ccc(OP(C)(=O)O)cc1,2.71,7.54
COc1ccccc1OP(C)(=O)Nc1ccccc1Br (stereo not given),1.82,1.67
CC1CCN(C(=O)Oc2c(Cl)cc(Cl)c3cccnc23)CC1,1.97,8.05
CN(C)C(=O)OCCc1n(C)cc[n+]1C,2.26,3.45
CN(C)C(=O)c1c([N+](=O)[O-])cc([N+](=O)[O-])cc1[N+](=O)[O-],4.02,3.21
CC(C)=N/N=C(\N)N[N+](=O)[O-],2.05,13.5
CP(=O)(OC12CC3CC(CC(C3)C1)C2)OC12CC3CC(CC(C3)C1)C2,1.84,6.82
CCOC(=O)c1ccc(NP(C)(=O)Oc2ccc(Cl)cc2)cc1 (stereo not given),3.2,10.8
O=[N+]([O-])c1ncn(CCn2ncnc2[N+](=O)[O-])n1,0.901,3.1
Cc1cc(C)cc(OP(C)(=O)Nc2cccc(C(F)(F)F)c2)c1 (stereo not given),1.85,0.2
COc1ccc(OP(C)(=O)Nc2ccccc2Br)cc1 (stereo not given),3.01,7.2
COc1ccccc1OP(C)(=O)Nc1ccc(C)c(C)c1 (stereo not given),2.75,5.73

Compound,% Hoechst-high responders [%],toxicity [%]
CCOP(=O)(Nc1ccccc1)OCC,3.39,6.79
Cc1cc(SC(NC(=O)c2ccc(F)cc2)C(Cl)(Cl)Cl)ncn1 (stereo not given),1.18,5.56
Cc1nc2ccc3ccccc3c2o1.O=[N+]([O-])c1cc([N+](=O)[O-])c(O)c([N+](=O)[O-])c1,2.19,0.834
CP(=O)(OCCOc1ccccc1)OCCOc1ccccc1,2.85,8.04
CP(=O)(Nc1ccc(Cl)cc1Cl)Oc1ccccc1 (stereo not given),1.51,7.03
CCN(N=Nc1nonc1N)c1nonc1N,2.3,1.22
Cc1ccc(N/C(=N/P(=O)(N2CCOCC2)N2CCOCC2)N2CCOCC2)cc1,2.02,9.89
NC(=O)c1cc([N+](=O)[O-])cc([N+](=O)[O-])c1N,1.79,8.05
Clc1ccc(Cl)c(NC2=NCC(CBr)S2)c1 (stereo not given),1.2,4.62
CN(C)CCOC(=O)C(O)(c1ccccc1)C1CCCC1 (stereo not given),0.403,5.87
CN1CCCC(OC(=O)C(c2ccccc2)c2ccccc2)C1 (stereo not given),0.76,22.6
COc1ccc(OP(C)(=O)Nc2ccccn2)cc1 (stereo not given),1.8,19.1
COc1ccccc1OP(=O)(Nc1ccc(C)cn1)Oc1ccccc1OC,1.05,10.7
Cc1c2non([O-])c-2c(C)[n+](=O)[n+]1[O-],1.93,7.48
O=C(NC(Sc1ccncn1)C(Cl)(Cl)Cl)c1ccccc1 (stereo not given),1.2,3.32
Oc1ccccc1CNc1ccccn1,1.24,7.55
CC(C)CC(=O)NC(Sc1ccc(Cl)cc1)C(Cl)(Cl)Cl (stereo not given),1.67,5.38
O=[N+]([O-])c1cc([N+](=O)[O-])c(Nc2ccccn2)c([N+](=O)[O-])c1,2.17,0.161
Cc1c(NP(C)(=O)Oc2ccc(C(C)C)cc2)c(=O)n(-c2ccccc2)n1C (stereo not given),2.01,1.83
CCc1ccc(OP(C)(=O)O)cc1,2.07,8.5
COc1ccccc1OP(C)(=O)Nc1ccc(C)cc1C (stereo not given),1.5,6.98
CP(=O)(Nc1ccccn1)Oc1ccccc1 (stereo not given),2.23,15.2
CCOc1ccc(C2=NCC(CBr)S2)cc1 (stereo not given),7.35,54.2
O=P1(Nc2nc3ccc(Cl)cc3s2)COc2ccccc2O1 (stereo not given),1.47,12
CC(C)c1ccc(OP(C)(=O)Nc2ccc(SC(F)(F)F)cc2)cc1 (stereo not given),3.15,12.5

Compound,% Hoechst-high responders [%],toxicity [%]
CC(C)(C)C(=O)NC(Sc1ccccc1)C(Cl)(Cl)Cl (stereo not given),1.7,3
CP(=O)(Nc1ccccc1F)Oc1ccccc1 (stereo not given),2.16,11.4
O=C(OCCN1CCN(CCOCc2ccccc2)CC1)C(O)(c1ccccc1)c1ccccc1,2.79,12.5
CC(=O)Nc1ccc(Oc2c([N+](=O)[O-])cc([N+](=O)[O-])cc2[N+](=O)[O-])cc1,1.47,8.66
CCOC(=O)NC(Sc1ccccc1)C(Cl)(Cl)Cl (stereo not given),1.77,8.69
c1ccc(-c2nn[nH]n2)c(-c2nn[nH]n2)c1,1.69,13.1
CCNC(=S)/N=C(\N)N[N+](=O)[O-],2.46,6.65
O=C(NC1CCS(=O)(=O)C1)NP(=S)(Oc1ccccc1)Oc1ccccc1 (stereo not given),2,4.87
COc1ccc(OP(C)(=O)Nc2ccc(SC(F)(F)F)cc2)cc1 (stereo not given),2.5,7.04
CCOC(=O)c1ccc(NP(C)(=O)Oc2ccc(F)cc2)cc1 (stereo not given),1.51,8.15
CCN(CC)CCCOC(=O)C(O)(c1ccccc1)C1CCCCC1 (stereo not given),2.18,8.02
CCC(=O)N1C2C3N(C(=O)CC)C1C1N(C(=O)CC)C(C(N1C(=O)CC)N3C(=O)CC)N2C(=O)CC,1.41,4.2
Cc1ccc(OP(=O)(Nc2ccccn2)Oc2ccc(C)cc2)cc1,2.98,4.93
CC(=O)NC(SC(=S)N(CC(C)C)CC(C)C)C(Cl)(Cl)Cl (stereo not given),3.61,0.595
COC(=O)c1cc2c(s1)N=C(c1ccccc1)N(C)P2(=O)N1CCOCC1 (stereo not given),3.52,4.17
O=c1c2cc([N+](=O)[O-])ccc2[nH]c2c([N+](=O)[O-])cc([N+](=O)[O-])cc12,5.86,20.9
CP(=O)(Nc1ccccc1)Oc1ccc(F)cc1 (stereo not given),1.66,5.44
O=P(Nc1ccccn1)(c1ccc(Br)cc1)c1ccc(Br)cc1,2.53,7.53
COc1ccc(OP(C)(=O)Nc2cccc(Br)c2)cc1 (stereo not given),2.12,5.48
COc1ccc(NP(C)(=O)Oc2ccccc2OC)cc1 (stereo not given),1.4,4.13
CN(C)CCOC(=O)C(O)(c1ccccc1)C1CCCCC1 (stereo not given),2.68,11.5
O=[N+]([O-])c1cc([N+](=O)[O-])c(NCC2CCS(=O)(=O)C2)c([N+](=O)[O-])c1 (stereo not given),2.91,1.07
CC(=O)NC(SC(=S)N(C)C)C(Cl)(Cl)Cl (stereo not given),2.96,8.21
O=C(OC1CN2CCC1CC2)c1cccc(Cl)c1 (stereo not given),2.27,5.29
C(Cc1nn[nH]n1)Cc1nn[nH]n1,2.94,7.44

Compound,% Hoechst-high responders [%],toxicity [%]
CC(C)C(=O)NC(Sc1ccccc1)C(Cl)(Cl)Cl (stereo not given),3.41,6.34
O=P(Nc1nccs1)(c1ccccc1)c1ccccc1,2.41,30.5
c1nnnn1CCn1cnnn1,2.01,14.8
CCOP(C)(=S)SCC(=O)NC(C)(CC)C(=O)O (stereo not given),1.27,9.1
CP(=O)(Nc1ccc2c(c1)OCCO2)Oc1ccccc1 (stereo not given),1.39,0.771
Cc1ccccc1NP(C)(=O)Nc1ccccc1C,1.19,7.06
O=[N+]([O-])c1cc([N+](=O)[O-])c(-n2nnc3ccccc32)c([N+](=O)[O-])c1,2.81,8.48
O=P1(Nc2ccccn2)COc2ccccc2OC1,3.26,8.17
Clc1n[nH]nc1-c1nn[nH][15n]1,3.06,5.68
CC(C)/C=N\N=C(\N)N[N+](=O)[O-],2.49,1.41
Cc1nc2ccc3ccccc3c2s1.O=[N+]([O-])c1cc([N+](=O)[O-])c(O)c([N+](=O)[O-])c1,2.37,1.66
CC1(CBr)Cn2c(nc3ccccc3c2=O)S1 (stereo not given),1.79,0.607
CC1CCC(C(C)C)C(OP(=O)(Nc2ccccn2)c2ccccc2)C1 (stereo not given),1.38,11.1
Cc1nn(-c2ccccc2)c2c1P(=O)(N1CCOCC1)N(C)C(c1ccccc1)=N2 (stereo not given),2.19,3.85
COc1cc(C2NCCC3(OCCO3)C2(C)C)cc(OC)c1OC.O=[N+]([O-])c1cc([N+](=O)[O-])c(O)c([N+](=O)[O-])c1 (stereo not given),2.56,6.46
CN(C)C1(CNC(=O)c2ccc(S(C)(=O)=O)cc2)CCCCC1,2.33,2.47
O=P1(Nc2ncccn2)COc2ccccc2OC1,3.26,12.8
COc1ccccc1OP(C)(=O)Nc1c(C)cccc1C (stereo not given),1.21,12.2
CN1CCCCC1COC(=O)C1(O)c2ccccc2CCc2ccccc21 (stereo not given),2.19,7.41
CP(=O)(Nc1ccc(SC(F)(F)F)cc1)Oc1ccccc1 (stereo not given),1.53,2.05
CCCOc1ccc(NP(C)(=O)Oc2ccc(Cl)cc2)cc1 (stereo not given),2.62,14.6
O=P1(Nc2ccc(Br)cn2)COc2ccccc2OC1,1.93,4.63
Cc1ccc(OCC(=O)OC2CN3CCC2CC3)cc1 (stereo not given),1.94,4.24
O=P(Nc1nccs1)(c1ccccc1)c1nc2ccccc2s1 (stereo not given),1.88,3.58
O=P(Nc1nccs1)(Oc1ccccc1)Oc1ccccc1,2.45,6.32
